Assay results taken from PubChem BioAssay AID1465 (SRMLSC, 2008).
The whole screen tested about 220,000 compounds, of which about 160 (0.073%) were called active. Only results without a clear call are listed here; the source files them as inconclusive.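 Rule for the calls: active = fold induction of absorbance versus untreated yeast above a set limit, then at least 30% activation at any dose in follow-up; inconclusive = repeats straddling the limit, or above it without dose testing; inactive = fold induction below the set limit.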

experiment: mitochondrial function rescue without frataxin homolog – Friedreich's ataxia, plus single-dose screen, dose response (AID 1465); conditions: S. cerevisiae Yfh1-off respiration, WST-1 reduction, 72 h; at 50 µM; stronger effect = higher value

Row | SMILES | fold induction
1 | O=[N+]([O-])c1cc([N+](=O)[O-])c(Nc2nnnn2CCO)c([N+](=O)[O-])c1 | inconclusive: 1.34
